Measured values as given in patent US6448031 (dated 2002).
[ ]: non-standard residue; d: D form. The star is where a group is joined. Arg(NO2) = N=C(NCCC[C@H](N)C(=O)O)N[N+](=O)[O-]; Tos = Cc1ccc(S(=O)(=O)*)cc1; Cbz = O=C(OCc1ccccc1)*; Boc = CC(C)(C)OC(=O)*; azaGly = NNC(=O)O; tBu = CC(C)(C)*

Assay: general procedure: hybrid (solid and solution phase) peptide synthesis; p-methylbenzhydrylamine (MBHA) resin, PEPTIDE INSTITUTE, INC., amino group 0.72 mmol/g; DCC/HOBt (solid phase); mixed anhydride, azide, WSC/HOSu (solution); chymotrypsi

| Substance | step yield (coupling step) | also measured |
| --- | --- | --- |
| pGlu-D-His-Trp-OMe + H-Ser-Tyr-D-Ser(tBu)-Leu-Arg-Pro-NHEt | 7.8% | – |
| Cbz-SY[dL]LR(Tos)P-NHEt | 83.2% | – |
| Boc-[dL]LR(Tos)P-NHEt | 92.1% | – |
| pGlu-His-Trp-Ser-Tyr-Gly-Leu-Arg-Pro-Gly-NH2 | 76.3% | – |
| Cbz-SY[dS](tBu)LRP-NHEt | 87.5% | – |
| H-SY[dL]LRP-NHEt | – | step yield (late stage modification step): 92.4% |
| H-SY[dS](tBu)LRP-NHEt | – | step yield (late stage modification step): 90.3% |
| Cbz-SY[dS](tBu)LRP[azaGly]-NH2 | 78.6% | – |
| Cbz-[dS](tBu)LRP-NHEt | – | step yield (coupling step, run 1): 90.5%; step yield (coupling step, run 2): 91.2% |
| pGlu-His-Trp-Ser-Tyr-D-Trp-Leu-Arg-Pro-Gly-NH2 | 75.45% | – |
| Cbz-L[Arg(NO2)]P[azaGly]-NH2 | 98.6% | – |
| pGlu-His-D-Trp-OMe + H-Ser-Tyr-D-Ser(tBu)-Leu-Arg-Pro-NHEt | 0.0% | – |
| pGlu-His-Trp-Ser-Tyr-D-Leu-Leu-Arg-Pro-NHEt | 76.4% | – |
| pGlu-His-Trp-Ser-Tyr-D-Ser(But)-Leu-Arg-Pro-NHEt | – | step yield (coupling step, run 1): 74.9%; step yield (coupling step, run 2): 82.4%; step yield (coupling step, run 3): 78.8% |
| H-SY[dS](tBu)LRP[azaGly]-NH2 | – | step yield (late stage modification step): 94.6% |
| Cbz-[dS](tBu)LRP[azaGly]-NH2 | 78.3% | – |
| pGlu-His-Trp-OMe + H-D-Ser-Tyr-D-Ser(tBu)-Leu-Arg-Pro-NHEt | 0.0% | – |
| pGlu-His-Trp-Ser-Tyr-D-Ser(But)-Leu-Arg-Pro-Azgly-NH2 | 75.9% | – |
| pGlu-His-Trp-Ser-Tyr-(2-naphthyl)-D-Ala-Leu-Arg-Pro-Gly-NH2 | 76.2% | – |
